Data as given in PubChem BioAssay AID504764 (Drosophila RNAi Screening Center, 2011)
Aim: 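Knock-downs that raise or lower a Notch target reporter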 (primary screen). System: Drosophila Kc167 cells. Reagents: long dsRNA against Drosophila genes. Time to read-out: about 5 days (4 days dsRNA, then 24 h after transfection). Treatment: transfection of constitutively active membrane-tethered Notch lacking the extracellular domain, read 24 h later. Measured: 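Firefly luciferase from an E(spl)m3 reporter with active Notch, plus control-promoter and uninduced reporter wells for normalisation; unnormalised counts, duplicate wells a and b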. Direction: induced reporter light, run 1, well a and induced reporter light, run 1, well b: higher = more light from the Notch target reporter with active Notch; control promoter light, run 1, well a and control promoter light, run 1, well b: higher = more light from the viral control promoter (cell number, transfection, viability); uninduced reporter light, run 1, well a: higher = more light from the Notch target reporter without active Notch. Rule for the call: 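Hit if the duplicate-averaged log2 ratio of induced to control-promoter light gives a plate-wise z beyond ±2, or induced to uninduced beyond ±1.8; weak-control or discordant-duplicate wells dropped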. Calls: active = modifier hit (raised or lowered Notch signal); inactive = not a hit.
The deposit covers about 22,000 reagents; shown is an unselected part of those that have a named target and a result. Of all reagents, 403 (1.9%) were called active. 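Unnormalised raw counts per well; ratio z-scores behind the hit calls and whether each hit raises or lowers signal are not deposited.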 Not given: the amount of reagent.

For Pdh (Photoreceptor dehydrogenase) [DRSC11249], the values are induced reporter light, run 1, well a = 1.31e5; induced reporter light, run 1, well b = 1.20e5; control promoter light, run 1, well a = 1.02e5; control promoter light, run 1, well b = 1.14e5; uninduced reporter light, run 1, well a = 10135; inactive. With knock-down of CG18473 [DRSC16381], the record shows induced reporter light, run 1, well a = 1.04e5; induced reporter light, run 1, well b = 86865; control promoter light, run 1, well a = 90730; control promoter light, run 1, well b = 1.09e5; uninduced reporter light, run 1, well a = 4510; inactive. Against Mf (Myofilin) [DRSC16120] the deposit lists induced reporter light, run 1, well a = 1.87e5; induced reporter light, run 1, well b = 2.23e5; control promoter light, run 1, well a = 1.84e5; control promoter light, run 1, well b = 1.86e5; uninduced reporter light, run 1, well a = 15645; inactive. Depletion of yellow-f2 [DRSC16372] resulted in: induced reporter light, run 1, well a = 2.05e5; induced reporter light, run 1, well b = 1.47e5; control promoter light, run 1, well a = 1.30e5; control promoter light, run 1, well b = 1.63e5; uninduced reporter light, run 1, well a = 11820; inactive. Against CG32833 [DRSC04596] the deposit lists induced reporter light, run 1, well a = 1.60e5; induced reporter light, run 1, well b = 1.75e5; control promoter light, run 1, well a = 1.18e5; control promoter light, run 1, well b = 1.57e5; uninduced reporter light, run 1, well a = 10720; inactive.

Looked up above.
For “uninduced reporter light, run 1, well a”, CG18473 [DRSC16381] reads 4510
CG32833 [DRSC04596], induced reporter light, run 1, well a → 1.60e5

Additional reagents follow:
Against CG11986 [DRSC14461], the values are induced reporter light, run 1, well a = 95315; induced reporter light, run 1, well b = 1.18e5; control promoter light, run 1, well a = 84380; control promoter light, run 1, well b = 70435; uninduced reporter light, run 1, well a = 9010; inactive. Against CG13699 [DRSC10048] the deposit lists induced reporter light, run 1, well a = 1.05e5; induced reporter light, run 1, well b = 1.04e5; control promoter light, run 1, well a = 1.83e5; control promoter light, run 1, well b = 1.54e5; uninduced reporter light, run 1, well a = 6732; inactive. After knock-down of Cht7 (Chitinase 7) [DRSC08538], the record shows induced reporter light, run 1, well a = 1.74e5; induced reporter light, run 1, well b = 1.36e5; control promoter light, run 1, well a = 1.76e5; control promoter light, run 1, well b = 65550; uninduced reporter light, run 1, well a = 15140; inactive. Depletion of Dab (Disabled) [DRSC11140] came out at: induced reporter light, run 1, well a = 2.15e5; induced reporter light, run 1, well b = 1.95e5; control promoter light, run 1, well a = 2.75e5; control promoter light, run 1, well b = 2.07e5; uninduced reporter light, run 1, well a = 7605; inactive. CG3294 [DRSC00590] scored induced reporter light, run 1, well a = 1.61e5; induced reporter light, run 1, well b = 1.70e5; control promoter light, run 1, well a = 1.67e5; control promoter light, run 1, well b = 1.89e5; uninduced reporter light, run 1, well a = 15390; inactive. Against CHMP2B (Charged multivesicular body protein 2b) [DRSC10436], the entry reads induced reporter light, run 1, well a = 1.27e5; induced reporter light, run 1, well b = 1.07e5; control promoter light, run 1, well a = 99815; control promoter light, run 1, well b = 57645; uninduced reporter light, run 1, well a = 9990; inactive.

After knock-down of eIF2alpha (eukaryotic translation initiation factor 2 subunit alpha) [DRSC20327] the results were induced reporter light, run 1, well a = 7865; induced reporter light, run 1, well b = 6185; control promoter light, run 1, well a = 8675; control promoter light, run 1, well b = 5255; uninduced reporter light, run 1, well a = 350; inactive.
